Assay results from the supplement of paper PMC10849652.
This is one part of the list. Residues, ends and D or L forms follow the SMILES beside them. *: point of attachment. Cbz = O=C(OCc1ccccc1)*

Protein sequences, listed by entry. Tags and fused reporters are not part of them. Lines headed by an entry give the natural chain unless they say otherwise; changes in a name come on top.
UniProt Q9HC38: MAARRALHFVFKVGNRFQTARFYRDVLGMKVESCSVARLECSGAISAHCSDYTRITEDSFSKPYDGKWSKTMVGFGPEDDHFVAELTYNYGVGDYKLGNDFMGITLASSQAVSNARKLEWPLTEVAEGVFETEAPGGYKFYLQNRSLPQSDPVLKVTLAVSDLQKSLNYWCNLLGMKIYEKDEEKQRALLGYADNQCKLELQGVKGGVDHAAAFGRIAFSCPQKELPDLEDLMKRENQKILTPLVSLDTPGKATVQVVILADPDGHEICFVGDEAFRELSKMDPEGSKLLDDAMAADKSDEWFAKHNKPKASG
UniProt Q9NWU2, whole entry, looked up: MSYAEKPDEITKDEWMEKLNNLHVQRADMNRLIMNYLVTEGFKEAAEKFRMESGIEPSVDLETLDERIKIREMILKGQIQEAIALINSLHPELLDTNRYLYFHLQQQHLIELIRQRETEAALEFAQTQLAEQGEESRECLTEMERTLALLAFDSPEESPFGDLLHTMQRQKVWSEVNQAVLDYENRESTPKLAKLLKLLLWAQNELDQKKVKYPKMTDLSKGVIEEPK
UniProt O60234, whole entry, looked up: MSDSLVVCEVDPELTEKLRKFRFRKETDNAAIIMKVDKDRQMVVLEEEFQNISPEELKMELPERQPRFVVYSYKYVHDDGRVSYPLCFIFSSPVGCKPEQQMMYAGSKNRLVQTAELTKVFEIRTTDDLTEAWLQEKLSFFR
UniProt Q96EK6: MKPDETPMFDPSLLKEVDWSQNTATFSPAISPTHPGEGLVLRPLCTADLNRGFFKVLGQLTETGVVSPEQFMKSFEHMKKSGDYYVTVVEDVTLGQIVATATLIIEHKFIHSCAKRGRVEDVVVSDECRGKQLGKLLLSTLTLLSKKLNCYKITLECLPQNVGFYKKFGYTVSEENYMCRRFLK
UniProt O75496: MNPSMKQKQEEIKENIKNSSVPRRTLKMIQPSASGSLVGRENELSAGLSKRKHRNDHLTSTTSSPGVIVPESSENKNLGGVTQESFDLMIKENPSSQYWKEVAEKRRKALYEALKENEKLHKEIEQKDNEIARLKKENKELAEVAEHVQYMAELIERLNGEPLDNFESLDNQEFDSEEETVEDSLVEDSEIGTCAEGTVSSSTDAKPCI
UniProt P50148, whole entry, looked up: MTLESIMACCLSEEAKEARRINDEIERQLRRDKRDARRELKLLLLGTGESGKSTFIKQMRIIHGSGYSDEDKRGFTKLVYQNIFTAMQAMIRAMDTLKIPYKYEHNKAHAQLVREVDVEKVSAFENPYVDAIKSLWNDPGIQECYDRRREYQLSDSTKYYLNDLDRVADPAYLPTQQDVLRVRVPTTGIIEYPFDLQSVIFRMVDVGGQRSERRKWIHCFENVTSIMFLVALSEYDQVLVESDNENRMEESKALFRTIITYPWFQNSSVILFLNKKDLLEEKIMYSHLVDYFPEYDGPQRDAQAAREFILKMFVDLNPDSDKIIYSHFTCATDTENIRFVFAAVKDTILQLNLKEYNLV
UniProt P49915: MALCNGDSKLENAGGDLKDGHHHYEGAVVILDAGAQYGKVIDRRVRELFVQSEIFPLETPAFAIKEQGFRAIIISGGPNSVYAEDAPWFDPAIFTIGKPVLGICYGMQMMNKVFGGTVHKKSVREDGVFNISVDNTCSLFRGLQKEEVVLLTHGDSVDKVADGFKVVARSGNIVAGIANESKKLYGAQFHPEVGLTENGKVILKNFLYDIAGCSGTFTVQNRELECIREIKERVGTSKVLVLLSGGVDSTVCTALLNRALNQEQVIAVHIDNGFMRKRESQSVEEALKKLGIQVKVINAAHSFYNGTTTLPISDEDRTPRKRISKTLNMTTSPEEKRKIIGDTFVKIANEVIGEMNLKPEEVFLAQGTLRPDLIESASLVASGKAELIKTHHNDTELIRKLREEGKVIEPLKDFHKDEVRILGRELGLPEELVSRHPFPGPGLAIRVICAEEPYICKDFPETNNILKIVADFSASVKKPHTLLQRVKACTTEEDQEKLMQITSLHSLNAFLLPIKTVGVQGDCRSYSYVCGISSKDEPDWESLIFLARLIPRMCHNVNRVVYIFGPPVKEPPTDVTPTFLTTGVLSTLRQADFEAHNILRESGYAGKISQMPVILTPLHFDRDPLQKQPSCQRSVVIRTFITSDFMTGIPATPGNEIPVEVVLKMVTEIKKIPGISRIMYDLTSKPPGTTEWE
UniProt Q8IXQ4: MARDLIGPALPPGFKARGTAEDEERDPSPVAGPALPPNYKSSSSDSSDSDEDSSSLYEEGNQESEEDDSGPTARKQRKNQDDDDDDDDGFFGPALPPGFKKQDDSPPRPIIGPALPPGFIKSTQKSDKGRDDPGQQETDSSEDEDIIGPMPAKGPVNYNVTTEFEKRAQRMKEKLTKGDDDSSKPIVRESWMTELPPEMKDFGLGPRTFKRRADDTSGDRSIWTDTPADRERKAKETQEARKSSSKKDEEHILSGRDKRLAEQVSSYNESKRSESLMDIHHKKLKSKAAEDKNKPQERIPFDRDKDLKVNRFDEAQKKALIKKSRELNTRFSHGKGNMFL
UniProt P17900: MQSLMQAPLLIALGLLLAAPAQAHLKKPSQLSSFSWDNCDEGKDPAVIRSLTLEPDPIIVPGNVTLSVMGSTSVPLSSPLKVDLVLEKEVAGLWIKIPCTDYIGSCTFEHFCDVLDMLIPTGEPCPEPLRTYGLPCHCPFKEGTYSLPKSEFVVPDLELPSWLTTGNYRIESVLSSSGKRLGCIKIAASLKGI
UniProt P25098: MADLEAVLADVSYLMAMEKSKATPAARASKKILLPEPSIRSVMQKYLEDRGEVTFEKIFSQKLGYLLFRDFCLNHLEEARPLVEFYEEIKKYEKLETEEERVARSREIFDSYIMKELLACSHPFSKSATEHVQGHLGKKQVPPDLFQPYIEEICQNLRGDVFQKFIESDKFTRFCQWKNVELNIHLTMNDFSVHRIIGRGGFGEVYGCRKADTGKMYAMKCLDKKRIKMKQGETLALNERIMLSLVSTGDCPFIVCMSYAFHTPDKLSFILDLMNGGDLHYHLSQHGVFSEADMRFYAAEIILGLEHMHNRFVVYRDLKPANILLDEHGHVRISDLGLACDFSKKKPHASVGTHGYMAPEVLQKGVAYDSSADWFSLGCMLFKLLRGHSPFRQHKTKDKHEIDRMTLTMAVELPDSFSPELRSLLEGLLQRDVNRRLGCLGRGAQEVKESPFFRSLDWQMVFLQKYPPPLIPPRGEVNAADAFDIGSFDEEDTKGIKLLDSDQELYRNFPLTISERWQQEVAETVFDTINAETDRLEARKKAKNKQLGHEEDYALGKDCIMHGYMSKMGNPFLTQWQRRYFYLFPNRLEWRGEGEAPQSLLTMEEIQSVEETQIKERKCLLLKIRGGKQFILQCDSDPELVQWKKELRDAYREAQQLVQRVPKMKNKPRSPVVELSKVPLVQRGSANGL
UniProt Q92896: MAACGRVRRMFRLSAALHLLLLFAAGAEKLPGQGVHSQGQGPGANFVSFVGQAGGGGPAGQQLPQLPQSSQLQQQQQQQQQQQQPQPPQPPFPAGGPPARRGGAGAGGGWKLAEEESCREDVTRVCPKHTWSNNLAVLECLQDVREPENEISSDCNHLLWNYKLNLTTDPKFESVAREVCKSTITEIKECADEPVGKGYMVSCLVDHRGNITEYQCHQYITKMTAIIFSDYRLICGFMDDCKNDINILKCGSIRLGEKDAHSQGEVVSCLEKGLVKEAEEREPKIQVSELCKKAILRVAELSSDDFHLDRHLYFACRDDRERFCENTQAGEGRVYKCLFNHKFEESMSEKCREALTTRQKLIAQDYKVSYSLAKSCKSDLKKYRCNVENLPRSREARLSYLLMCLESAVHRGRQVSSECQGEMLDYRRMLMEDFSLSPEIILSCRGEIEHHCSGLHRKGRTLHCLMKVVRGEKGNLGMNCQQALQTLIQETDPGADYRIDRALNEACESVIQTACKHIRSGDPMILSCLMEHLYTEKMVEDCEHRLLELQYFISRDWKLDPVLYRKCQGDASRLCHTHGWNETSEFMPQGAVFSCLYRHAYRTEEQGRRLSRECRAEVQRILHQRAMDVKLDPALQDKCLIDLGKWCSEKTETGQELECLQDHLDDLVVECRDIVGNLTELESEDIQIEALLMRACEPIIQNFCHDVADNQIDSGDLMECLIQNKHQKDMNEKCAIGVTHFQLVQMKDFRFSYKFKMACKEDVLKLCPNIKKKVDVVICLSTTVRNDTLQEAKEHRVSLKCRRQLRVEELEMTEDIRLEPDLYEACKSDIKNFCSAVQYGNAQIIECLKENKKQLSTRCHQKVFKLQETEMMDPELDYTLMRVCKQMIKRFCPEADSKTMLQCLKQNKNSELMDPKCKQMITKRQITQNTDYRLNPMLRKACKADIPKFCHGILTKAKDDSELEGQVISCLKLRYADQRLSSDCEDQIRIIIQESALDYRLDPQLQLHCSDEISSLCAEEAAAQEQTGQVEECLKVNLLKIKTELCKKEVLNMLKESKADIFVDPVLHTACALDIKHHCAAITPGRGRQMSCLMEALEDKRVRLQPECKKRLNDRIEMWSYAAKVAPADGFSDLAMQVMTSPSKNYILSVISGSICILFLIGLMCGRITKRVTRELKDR
UniProt Q9Y3E0: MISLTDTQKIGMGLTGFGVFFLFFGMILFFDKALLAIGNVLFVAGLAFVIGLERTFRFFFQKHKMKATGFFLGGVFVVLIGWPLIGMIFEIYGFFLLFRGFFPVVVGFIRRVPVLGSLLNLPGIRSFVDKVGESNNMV
UniProt O43292: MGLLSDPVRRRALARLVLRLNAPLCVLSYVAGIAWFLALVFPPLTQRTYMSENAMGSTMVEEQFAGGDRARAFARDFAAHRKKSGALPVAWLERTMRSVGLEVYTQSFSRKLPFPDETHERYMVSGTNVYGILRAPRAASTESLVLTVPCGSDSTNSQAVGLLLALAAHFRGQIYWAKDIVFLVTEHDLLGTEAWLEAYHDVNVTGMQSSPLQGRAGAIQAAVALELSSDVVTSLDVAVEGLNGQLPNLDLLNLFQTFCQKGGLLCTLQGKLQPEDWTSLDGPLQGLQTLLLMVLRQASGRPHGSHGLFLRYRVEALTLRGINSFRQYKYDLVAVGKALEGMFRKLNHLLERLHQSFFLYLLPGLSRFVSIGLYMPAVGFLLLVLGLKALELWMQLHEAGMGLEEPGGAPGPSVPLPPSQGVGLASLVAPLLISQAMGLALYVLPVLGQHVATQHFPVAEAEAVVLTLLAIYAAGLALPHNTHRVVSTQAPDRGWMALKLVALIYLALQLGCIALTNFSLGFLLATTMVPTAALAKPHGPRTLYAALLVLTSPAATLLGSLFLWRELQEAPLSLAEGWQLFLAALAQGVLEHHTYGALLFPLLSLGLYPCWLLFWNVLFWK
UniProt B7ZAQ6: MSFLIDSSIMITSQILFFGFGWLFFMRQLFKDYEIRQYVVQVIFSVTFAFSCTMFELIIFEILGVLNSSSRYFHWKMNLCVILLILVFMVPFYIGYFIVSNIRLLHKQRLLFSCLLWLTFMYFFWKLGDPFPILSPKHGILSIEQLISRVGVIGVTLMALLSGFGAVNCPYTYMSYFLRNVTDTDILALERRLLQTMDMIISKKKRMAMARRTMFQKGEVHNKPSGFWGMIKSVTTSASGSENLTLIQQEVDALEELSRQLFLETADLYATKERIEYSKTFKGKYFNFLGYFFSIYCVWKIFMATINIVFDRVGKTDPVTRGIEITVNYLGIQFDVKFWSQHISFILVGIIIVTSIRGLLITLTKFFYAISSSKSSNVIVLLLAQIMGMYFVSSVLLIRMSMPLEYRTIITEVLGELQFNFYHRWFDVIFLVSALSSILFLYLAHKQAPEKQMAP
UniProt P46926: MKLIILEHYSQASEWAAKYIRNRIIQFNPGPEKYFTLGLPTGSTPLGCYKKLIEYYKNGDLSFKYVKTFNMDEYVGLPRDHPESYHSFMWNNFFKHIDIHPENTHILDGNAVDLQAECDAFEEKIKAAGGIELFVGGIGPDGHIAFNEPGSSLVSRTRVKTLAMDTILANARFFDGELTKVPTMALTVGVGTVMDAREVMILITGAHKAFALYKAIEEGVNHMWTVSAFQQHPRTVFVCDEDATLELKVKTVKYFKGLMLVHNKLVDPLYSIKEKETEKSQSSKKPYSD

Assays:
Assay in all cases: log2 fold change, soluble protein after heating vs DMSO (PISA); higher = thermal stabilisation; K562 cells, 10 uM, 30 min; active = over 0.2 and 3.5 SD of the protein, either way, in both replicates (recomputed)
IRAK-1-4 Inhibitor I = compound: C1COCCN1CCN2C3=CC=CC=C3N=C2NC(=O)C4=CC(=CC=C4)[N+](=O)[O-] [IRAK-1-4 Inhibitor I]
In short: (§1)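 Soluble protein was quantified by TMTpro 16plex LC-MS/MS after channel sums were equalised. It was obtained as the supernatant after 21,000xg for 90 min from pooled aliquots of K562 cells (2×10^6 cells/mL, 10 μM compound, 30 min) heated for 3 min across 48°C-58°C and extracted in PBS with 0.5% NP-40 at 4°C. Thermal stability values are relative to control samples and come from duplicates. They are given as log2 fold changes.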

ibrutinib = compound: C=CC(=O)N1CCC[C@@H](n2nc(-c3ccc(Oc4ccccc4)cc3)c3c(N)ncnc32)C1 [ibrutinib]
In short: as §1

[1] = compound: CC(=O)c1cnc2ccc(-c3cc(Cl)c(O)c(Cl)c3)nc2c1N[C@H]1CC[C@H](CN(C)C)CC1
In short: as §1

ralimetinib = compound: CC(C)(C)Cn1c(N)nc2ccc(-c3[nH]c(C(C)(C)C)nc3-c3ccc(F)cc3)nc21 [ralimetinib]
In short: as §1

[2] = compound: CC(C)(O)CC(=O)NCCn1ccc2ncnc(Nc3ccc(Oc4cccc(C(F)(F)F)c4)c(Cl)c3)c21
In short: as §1

[3] = compound: CC(C)C1=C2N=C(C=C(N2N=C1)NCC3=CC=CC=C3)NCCCCCCN
In short: as §1

[4] = compound: CC(C)C[C@@H](C=O)NC(=O)[C@H](CC(C)C)NC(=O)[C@H](CC(C)C)NC(=O)OCc1ccccc1
In short: as §1

pinometostat = compound: CC(C)N(C[C@H]1O[C@@H](n2cnc3c(N)ncnc32)[C@H](O)[C@@H]1O)[C@H]1C[C@@H](CCc2nc3cc(C(C)(C)C)ccc3[nH]2)C1 [pinometostat]
In short: as §1

[5] = compound: CC1=C(C(CC(=O)N1)C2=CC=C(C=C2)C(F)(F)F)C(=O)NC3=C(C=C4C(=C3)C=NN4)F
In short: as §1

[6] = compound: CC1=C(C2=C(C=C1)C(=O)C3=CC=CC=C3N2CCCN)C
In short: as §1

[7] = compound: CC1=C(C=C(C=C1)NC(=O)C2=CC(=CC=C2)C(C)(C)C#N)NC3=CC4=C(C=C3)N=CN(C4=O)C
In short: as §1

[8] = compound: CC1=C(C=C(C=C1)NC(=O)C2=CC(=CC=C2)N(C)C)NC(=O)C3=CC=C(C=C3)O
In short: as §1

[9] = compound: CC1=CC=C(C=C1)SC2=C3C=C(SC3=CN=C2)C(=O)N
In short: as §1

[10] = compound: CC1=NC(=CC=C1)C2=C(N=C(N2)C(C)(C)C)C3=CC4=NC=CN=C4C=C3
In short: as §1

Nexturastat A = compound: CCCCN(Cc1ccc(C(=O)NO)cc1)C(=O)Nc1ccccc1 [Nexturastat A]
In short: as §1

vemurafenib = compound: CCCS(=O)(=O)Nc1ccc(F)c(C(=O)c2c[nH]c3ncc(-c4ccc(Cl)cc4)cc23)c1F [vemurafenib]
In short: as §1

[11] = compound: CCCS(=O)(=O)Nc1ccc(F)c(C(=O)c2c[nH]c3ncc(Cl)cc23)c1F
In short: as §1

[12] = compound: CCCc1cc(C)[nH]c(=O)c1CNC(=O)c1cc(-c2ccnc(N3CCN(C)CC3)c2)cc2c1cnn2C(C)C
In short: as §1

givinostat = compound: CCN(CC)Cc1ccc2cc(COC(=O)Nc3ccc(C(=O)NO)cc3)ccc2c1 [givinostat]
In short: as §1

barasertib = compound: CCN(CCCOc1ccc2c(Nc3cc(CC(=O)Nc4cccc(F)c4)[nH]n3)ncnc2c1)CCOP(=O)(O)O [barasertib]
In short: as §1

Measured: log2 fold change

GLOD4 isoform 2 (UniProt Q9HC38)
inactive: IRAK-1-4 Inhibitor I 0 | ibrutinib -0.025 | [1] 0.006 | ralimetinib -0.004 | [2] -0.067 | [3] -0.097 | [4] 0.005 | pinometostat -0.027 | [5] -0.017 | [6] 0.036 | [7] 0.023 | [8] -0.023 | [9] 0.011 | [10] 0.063 | Nexturastat A -0.085 | vemurafenib 0.017 | [11] 0.066 | [12] 0.008 | givinostat -0.002 | barasertib 0.009

GID8 (UniProt Q9NWU2)
inactive: IRAK-1-4 Inhibitor I -0.001 | ibrutinib -0.021 | [1] 0.034 | ralimetinib 0.04 | [2] -0.024 | [3] 0.046 | [4] -0.022 | pinometostat -0.037 | [5] 0.029 | [6] 0.033 | [7] 0.035 | [8] -0.037 | [9] -0.044 | [10] 0.013 | Nexturastat A 0.047 | vemurafenib 0.063 | [11] -0.002 | [12] -0.03 | givinostat -0.027 | barasertib 0.054

GMFG (UniProt O60234)
inactive: IRAK-1-4 Inhibitor I 0.041 | ibrutinib -0.025 | [1] -0.01 | ralimetinib -0.094 | [2] -0.026 | [3] -0.039 | [4] 0.045 | pinometostat -0.006 | [5] -0.044 | [6] -0.079 | [7] -0.05 | [8] 0.005 | [9] 0.062 | [10] 0.071 | Nexturastat A -0.084 | vemurafenib 0.026 | [11] 0.097 | [12] 0.018 | givinostat 0.003 | barasertib 0.016

GNPNAT1 (UniProt Q96EK6)
inactive: IRAK-1-4 Inhibitor I 0.076 | ibrutinib 0.088 | [1] -0.021 | ralimetinib 0.002 | [2] -0.026 | [3] 0.13 | [4] -0.031 | pinometostat -0.003 | [5] 0.044 | [6] 0 | [7] 0.002 | [8] 0.024 | [9] 0.028 | [10] 0.043 | Nexturastat A -0.082 | vemurafenib -0.011 | [11] 0 | [12] -0.048 | givinostat 0 | barasertib -0.034

GMNN (UniProt O75496)
inactive: IRAK-1-4 Inhibitor I 0.01 | ibrutinib 0.062 | [1] 0.006 | ralimetinib -0.051 | [2] -0.01 | [3] 0.114 | [4] 0.057 | pinometostat -0.063 | [5] 0.01 | [6] -0.009 | [7] -0.019 | [8] 0.018 | [9] 0.006 | [10] 0.005 | Nexturastat A -0.036 | vemurafenib -0.028 | [11] -0.005 | [12] -0.006 | givinostat -0.044 | barasertib -0.024

GNAQ (UniProt P50148)
inactive: IRAK-1-4 Inhibitor I 0.018 | ibrutinib 0.063 | [1] -0.093 | ralimetinib -0.068 | [2] 0.036 | [3] 0.095 | [4] 0.008 | pinometostat -0.004 | [5] -0.046 | [6] 0.039 | [7] 0.004 | [8] -0.013 | [9] -0.011 | [10] -0.076 | Nexturastat A -0.04 | vemurafenib -0.027 | [11] -0.1 | [12] -0.075 | givinostat -0.016 | barasertib -0.047

GMPS (UniProt P49915)
inactive: IRAK-1-4 Inhibitor I 0.036 | ibrutinib -0.018 | [1] -0.025 | ralimetinib 0.046 | [2] -0.05 | [3] -0.067 | [4] -0.064 | pinometostat -0.013 | [5] -0.011 | [6] 0.071 | [7] 0.008 | [8] -0.024 | [9] 0.033 | [10] 0.046 | Nexturastat A -0.051 | vemurafenib 0.013 | [11] 0.057 | [12] -0.01 | givinostat -0.019 | barasertib 0.009

GPALPP1 (UniProt Q8IXQ4)
inactive: IRAK-1-4 Inhibitor I 0.05 | ibrutinib -0.008 | [1] 0.005 | ralimetinib -0.045 | [2] 0.04 | [3] 0.031 | [4] 0.058 | pinometostat -0.015 | [5] -0.014 | [6] -0.045 | [7] -0.069 | [8] 0.122 | [9] -0.043 | [10] -0.06 | Nexturastat A 0.012 | vemurafenib -0.045 | [11] -0.029 | [12] -0.064 | givinostat 0.018 | barasertib -0.004

GOLGA3 (UniProt Q08378)
inactive: IRAK-1-4 Inhibitor I 0.034 | ibrutinib -0.004 | [1] 0.015 | ralimetinib 0.052 | [2] -0.024 | [3] 0.015 | [4] -0.035 | pinometostat 0.01 | [5] -0.012 | [6] 0.04 | [7] 0.003 | [8] 0.008 | [9] 0.042 | [10] -0.03 | Nexturastat A -0.081 | vemurafenib 0.053 | [11] 0.065 | [12] 0.032 | givinostat 0.016 | barasertib 0

GM2A (UniProt P17900)
inactive: IRAK-1-4 Inhibitor I 0.007 | ibrutinib -0.003 | [1] -0.039 | ralimetinib -0.054 | [2] 0.017 | [3] 0.114 | [4] -0.05 | pinometostat -0.045 | [5] -0.013 | [6] 0.136 | [7] -0.051 | [8] 0.085 | [9] 0.082 | [10] -0.077 | Nexturastat A -0.031 | vemurafenib -0.02 | [11] 0.015 | [12] -0.013 | givinostat 0 | barasertib 0.105

GRK2 (UniProt P25098)
inactive: IRAK-1-4 Inhibitor I 0.005 | ibrutinib 0.015 | [1] -0.073 | ralimetinib -0.055 | [2] -0.058 | [3] -0.014 | [4] 0.008 | pinometostat -0.009 | [5] 0.011 | [6] 0.05 | [7] -0.052 | [8] 0.002 | [9] 0.009 | [10] 0.007 | Nexturastat A 0.005 | vemurafenib -0.02 | [11] 0.021 | [12] 0.019 | givinostat -0.018 | barasertib 0.036

GLG1 isoform 2 (UniProt Q92896)
inactive: IRAK-1-4 Inhibitor I 0.017 | ibrutinib 0.022 | [1] 0.009 | ralimetinib -0.053 | [2] -0.015 | [3] -0.032 | [4] 0 | pinometostat -0.047 | [5] 0.022 | [6] -0.006 | [7] -0.027 | [8] 0.008 | [9] 0.102 | [10] 0.031 | Nexturastat A -0.061 | vemurafenib -0.014 | [11] 0.02 | [12] -0.008 | givinostat 0.005 | barasertib 0.015

GOLT1B (UniProt Q9Y3E0)
inactive: IRAK-1-4 Inhibitor I -0.005 | ibrutinib -0.06 | [1] 0.046 | ralimetinib -0.002 | [2] -0.002 | [3] -0.003 | [4] -0.118 | pinometostat -0.023 | [5] 0.02 | [6] -0.032 | [7] 0.029 | [8] 0.082 | [9] 0.021 | [10] 0.006 | Nexturastat A -0.062 | vemurafenib 0.015 | [11] 0.021 | [12] -0.028 | givinostat -0.022 | barasertib 0.044

2 records drawn at random from the list so far:
GOLGA3 (UniProt Q08378)
inactive: IRAK-1-4 Inhibitor I 0.034 | ibrutinib -0.004 | [1] 0.015 | ralimetinib 0.052 | [2] -0.024 | [3] 0.015 | [4] -0.035 | pinometostat 0.01 | [5] -0.012 | [6] 0.04 | [7] 0.003 | [8] 0.008 | [9] 0.042 | [10] -0.03 | Nexturastat A -0.081 | vemurafenib 0.053 | [11] 0.065 | [12] 0.032 | givinostat 0.016 | barasertib 0

GM2A (UniProt P17900)
inactive: IRAK-1-4 Inhibitor I 0.007 | ibrutinib -0.003 | [1] -0.039 | ralimetinib -0.054 | [2] 0.017 | [3] 0.114 | [4] -0.05 | pinometostat -0.045 | [5] -0.013 | [6] 0.136 | [7] -0.051 | [8] 0.085 | [9] 0.082 | [10] -0.077 | Nexturastat A -0.031 | vemurafenib -0.02 | [11] 0.015 | [12] -0.013 | givinostat 0 | barasertib 0.105

(cont.)

GPAA1 (UniProt O43292)
inactive: IRAK-1-4 Inhibitor I 0.016 | ibrutinib -0.042 | [1] 0.03 | ralimetinib 0.018 | [2] -0.015 | [3] -0.029 | [4] -0.043 | pinometostat 0.056 | [5] 0.043 | [6] 0.002 | [7] -0.01 | [8] 0.003 | [9] 0.028 | [10] -0.009 | Nexturastat A -0.024 | vemurafenib -0.038 | [11] -0.057 | [12] 0.042 | givinostat 0 | barasertib 0.023

GPR89A (UniProt B7ZAQ6)
inactive: IRAK-1-4 Inhibitor I -0.023 | ibrutinib 0.048 | [1] 0.009 | ralimetinib -0.014 | [2] -0.045 | [3] 0.011 | [4] 0.005 | pinometostat -0.041 | [5] -0.006 | [6] 0.014 | [7] -0.046 | [8] 0.034 | [9] 0.079 | [10] 0.09 | Nexturastat A -0.031 | vemurafenib 0.1 | [11] 0.028 | [12] 0.01 | givinostat 0 | barasertib 0.006

GNPDA1 (UniProt P46926)
inactive: IRAK-1-4 Inhibitor I 0.011 | ibrutinib 0.019 | [1] 0.021 | ralimetinib -0.041 | [2] -0.009 | [3] 0.065 | [4] -0.004 | pinometostat -0.051 | [5] 0.011 | [6] -0.006 | [7] -0.01 | [8] 0.017 | [9] 0.001 | [10] 0.005 | Nexturastat A -0.155 | vemurafenib 0 | [11] -0.008 | [12] -0.014 | givinostat -0.022 | barasertib 0.005
